Data from paper doi:10.1101/2021.12.17.472994.
No constants are given. Whether binding was seen depends on the method and setting. Some results given as binding are weak or reduced against the parent protein; the word gives no strength.

Target: T1, PATZ2 BTB domain (human), O43167
T1 chain: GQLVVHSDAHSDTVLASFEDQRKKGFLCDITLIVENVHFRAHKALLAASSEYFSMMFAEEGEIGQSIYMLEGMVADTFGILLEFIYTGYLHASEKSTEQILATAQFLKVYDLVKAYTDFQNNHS
Experiment: two-hybrid
Conditions: remark: other sources report otherwise

B1: PATZ2 BTB domain, O43167 10-133 (domain or fragment)
chain: T1 chain
Question: With B1 as the binder, how does the binding read?
Answer: binds
